# PubChem BioAssay AID1259308 – NCATS | 2017
# Screen: 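Candidate targets for better recombinant protein yield in mammalian cells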 (primary screen)
# Cell system: human HEK293 embryonic kidney cells stably expressing firefly luciferase (HEK-CMV-Luc2-Hygro)
# Knock-down reagent: single siRNA against human genes, 0.8 pmol siRNA per well
# Duration: 72 h
# Measurement: 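Luciferase light (ONE-Glo) measured on one replicate plate set and viability (CellTiter-Glo) on the other, scaled to a negative control siRNA, with robust z-scores and luciferase per cell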
# Reading the numbers: total luciferase, z-score and total luciferase, % of control: higher = more reporter protein produced; luciferase per cell, z-score: higher = more reporter output per viable cell; viable cells, % of control: higher = more viable cells
# Active means: 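An siRNA counts as active if its total luciferase robust z-score exceeds 3; genes with two or more such siRNAs out of three were retested with fresh siRNAs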
# Calls: active = raised luciferase; inactive = no rise
# The whole screen tested about 59,000 reagents; below is a random part of them. In the full data, about 1,510 (2.6%) got an active call. 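Calls use total luciferase alone and ignore viability, so some active siRNAs may act by altering cell number.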 Unmarked entries are inactive.
gene,PubChem SID,"total luciferase, z-score","total luciferase, % of control","luciferase per cell, z-score","viable cells, % of control"
PSME2,SID160715271,0.471,91.2,0.0782,99.9
PSME2,SID160715272,1.35,109,4.29,39.3
PSME2,SID160715273,-0.214,77.6,-0.637,103
PLA2G2E,SID160739511,0.262,87.1,-0.121,100
PLA2G2E,SID160739512,-1.08,60.4,-0.885,85.2
PLA2G2E,SID160739513,1.95,121,1.31,95.6
LOC400682,SID160767022,-0.888,64.2,-1.11,96.2
LOC400682,SID160767023,3.8 (active),157,4.15,58.9
LOC400682,SID160767024,1.65,115,1.2,93.5
HPD,SID160775280,-0.366,74.6,-0.178,87.4
HPD,SID160775281,-1.51,51.8,-1.31,81.6
HPD,SID160775282,0.405,89.9,0.494,88.3
KIF6,SID160761695,0.342,88.7,0.16,95
KIF6,SID160761696,-0.321,75.5,-0.696,101
KIF6,SID160761697,0.471,91.3,-0.113,105
TRMT61A,SID160755255,0.663,95.1,-0.522,122
TRMT61A,SID160755256,0.877,99.3,1.27,79.4
TRMT61A,SID160755257,-0.346,75,-0.604,98.2
MEX3C,SID160740605,-0.105,79.8,-0.179,93.5
MEX3C,SID160740606,-0.879,64.4,-0.854,90.1
MEX3C,SID160740607,-0.382,74.3,-0.802,103
ANKRD34A,SID160763397,1.61,114,1.87,77.8
ANKRD34A,SID160763398,-0.463,72.7,-0.444,91.3
ANKRD34A,SID160763400,0.923,100,0.193,106
LINC02120,SID160733089,1.81,118,0.865,105
LINC02120,SID160764365,4.9 (active),179,3.92,71.3
LINC02120,SID160764367,2.94,140,1.8,97.6
FUZ,SID160750193,-0.251,76.9,-0.284,92.6
FUZ,SID160750194,-1.1,59.9,-0.906,85
FUZ,SID160750195,-1.16,58.8,-0.37,72.5
EIF4E3,SID160763905,1.69,116,1.43,88.6
EIF4E3,SID160763906,1.26,107,0.579,103
EIF4E3,SID160763907,-0.863,64.7,-0.93,92.4
TAF4B,SID160717651,-0.82,65.6,-0.86,91.9
TAF4B,SID160717652,-0.703,67.9,2.38,40.5
TAF4B,SID160717653,0.726,96.3,1.24,77.7

Continued (7 carried over from the part before).
gene,PubChem SID,"total luciferase, z-score","total luciferase, % of control","luciferase per cell, z-score","viable cells, % of control"
FUZ,SID160750195,-1.16,58.8,-0.37,72.5
EIF4E3,SID160763905,1.69,116,1.43,88.6
EIF4E3,SID160763906,1.26,107,0.579,103
EIF4E3,SID160763907,-0.863,64.7,-0.93,92.4
TAF4B,SID160717651,-0.82,65.6,-0.86,91.9
TAF4B,SID160717652,-0.703,67.9,2.38,40.5
TAF4B,SID160717653,0.726,96.3,1.24,77.7
COA5,SID160733465,0.0429,82.7,-0.206,97.6
COA5,SID160768241,-1.01,61.7,-0.423,77.1
COA5,SID160768242,1.15,105,0.93,91.6
BOK,SID160723677,1.33,108,0.97,93.8
BOK,SID160723678,-0.0525,80.8,0.197,85.8
BOK,SID160723679,-1.27,56.7,-1.82,102
FRG1,SID160723768,-1.31,55.9,-0.0663,63.6
FRG1,SID160767346,1.92,120,2.53,69
FRG1,SID160767357,-0.772,66.5,-0.649,88.2
SPARCL1,SID160719969,0.796,97.7,0.536,94.8
SPARCL1,SID160719970,0.616,94.1,0.946,82
SPARCL1,SID160719971,0.284,87.5,0.31,90.1
SRBD1,SID160743022,0.987,102,0.367,103
SRBD1,SID160743023,-1.08,60.5,-1.46,99.4
SRBD1,SID160743025,0.0425,82.7,-0.166,96.6
SCARA5,SID160763789,0.0193,82.3,0.332,84.2
SCARA5,SID160763790,-0.716,67.6,-0.499,86.2
SCARA5,SID160763791,0.357,89,0.437,88.6
SLC9D1,SID160742711,0.624,94.3,0.958,81.9
SLC9D1,SID160742712,0.0236,82.4,0.894,72.7
SLC9D1,SID160742714,-0.354,74.9,1.19,61.1
